Measurements published in PubChem BioAssay AID1487 (National Center for Advancing Translational Sciences (NCATS), 2009).
The other results are listed elsewhere or left out. Shown are side measurements of this screen, not its main read-out; they come without a call. The list favours compounds with an active or inconclusive main result. The note in brackets gives the kind of curve behind each potency; many fits are weak.

Assay: qHTS Assay for Modulators of Lamin A Splicing
Conditions: HeLa LMNA splicing GFP/RFP minigene ratio, 48 h
Procedure, shortened: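 Read-out is the ratio of GFP to DsRed2 object intensity, acquired by 488 nm laser-scanning cytometry on HeLa lamin A-EGFP minigene reporter cells. Compound incubation 48 hrs at 37 °C in Opti-MEM with 2% FBS; DMSO 0.5% final.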

[1] = measured here: RFP viability control channel
[2] = measured here: GFP splicing reporter channel

SMILES | AC50 [1] | AC50 [2]
O=C(Nc1c(-c2ccccc2)nc2ccc(Cl)cn12)c1cccs1 | 11.2 µM [rising, partial curve] | –
C(=Nc1ccc(Nc2ccccc2)cc1)c1ccc2ccccc2c1 | 15.8 µM [rising, partial curve] | –
Cc1ccsc1C(=O)OCC(=O)Nc1ccc(Cl)cc1C(F)(F)F | 22.4 µM [rising, single point] | –
Cc1c(Cl)cccc1NC(CC(=O)c1ccccc1)C(=O)O (configuration not stated) | 20 µM [rising, single point] | –
Cc1sc2ncnc(N3CCC(C(=O)Oc4cccc(Cl)c4Cl)CC3)c2c1C | – | 5.01 µM [falling, full curve, poor fit]
COc1ccc(CNC(=O)C(C#N)c2nc3ccccc3nc2N2CCCC2)cc1 (configuration not stated) | – | 31.6 µM [falling, single point]
COc1cccc2c1C(=O)c1c(O)c3c(c(O)c1C2=O)C[C@@](O)(C(=O)CO)C[C@@H]3OC1CC(N)C(O)C(C)O1 (some centres not stated) | – | 10 µM [falling, partial curve]
COc1ccccc1OCC(=O)Nc1cccc(-c2nnc(-c3ccco3)o2)c1 | – | 39.8 µM [falling, partial curve, poor fit]
O=C(NCC(c1cccnc1)N1CCN(Cc2ccccc2)CC1)C(=O)Nc1cccc(F)c1 (configuration not stated) | 1.41 µM [falling, full curve, poor fit] | 1.26 µM [falling, full curve, poor fit]
Cc1ccc(Cn2c(=O)n(CC3CCC(C(=O)N4CCOCC4)CC3)c(=O)c3sccc32)cc1 (configuration not stated) | 0.00891 µM [falling, full curve, poor fit] | –
COC(=O)C(Cc1ccccc1)N1CCS(=O)(=O)CC1 (configuration not stated) | – | 1 µM [falling, full curve, poor fit]
O=C(CSc1nnc(NC2CCCCC2)s1)Nc1ccc2c(c1)C(=O)c1ccccc1C2=O | 0.00282 µM [falling, full curve, poor fit] | 3.16 µM [falling, partial curve, poor fit]
O=C(OCC1OC(n2cnc3c(N(C(=O)c4ccccc4)C(=O)c4ccccc4)ncnc32)C(O)C1F)c1ccccc1 (configuration not stated) | 35.5 µM [falling, single point] | 35.5 µM [falling, single point]
COC(=O)[C@@H]1CC[C@H](C)[C@@H](c2ccc(C)cc2)N1C(=O)c1ccc(/C=N/OC[C@@H](O)COCc2ccco2)cc1 | 15.8 µM [rising, single point] | –
COc1cccc(OCCN2CCN(c3ncnc4c3cnn4-c3ccccc3)CC2)c1 | 12.6 µM [rising, partial curve] | 12.6 µM [rising, partial curve]
CCc1cccc(NC(=O)CN2CCCN(Cc3cccc(C)c3)S2(=O)=O)c1 | 35.5 µM [falling, single point] | 35.5 µM [falling, single point]
CC1=C(C(=O)OCc2ccccc2)C(/C=C/c2ccccc2)N2C(=O)CCSC2=N1 (configuration not stated) | 17.8 µM [rising, single point] | 11.2 µM [rising, partial curve]
COc1cc(OC)c2c(C)cc(=O)oc2c1 | 35.5 µM [rising, single point] | –
COc1ccc2nc(N3CCN(C(=O)C4CC4)CC3)sc2c1 | 0.794 µM [rising, partial curve, poor fit] | 1.58 µM [rising, full curve]
CC(/C=C/c1ccccc1)=N\NC(=O)CNC(=O)c1ccccc1Cl | – | 12.6 µM [rising, single point]
Cc1cc(C(=O)CN2C(=O)C(=O)N(C3CCCC3)C2=O)c(C)n1-c1ccc(F)cc1 | 5.01 µM [falling, partial curve] | 3.55 µM [falling, partial curve]
CCN1CCN(C(=O)c2ccc(-c3nc4ccccc4s3)s2)CC1 | 0.562 µM [falling, full curve, poor fit] | –
COC(=O)c1ccc(Cn2cnc3c(cnn3-c3ccc(F)cc3)c2=O)o1 | 17.8 µM [rising, single point] | 14.1 µM [rising, single point]
COc1ccc(CCN(Cc2cccs2)S(=O)(=O)c2ccc(-n3cnnn3)cc2)cc1OC | 35.5 µM [rising, single point] | –
Cc1noc(C)c1Cc1c(Cl)cccc1Cl | 0.794 µM [falling, full curve, poor fit] | –
CN(C)c1nc(OCCNC(=O)COc2ccc(Cl)cc2Cl)nc(N(C)C)n1 | 15.8 µM [rising, single point] | –
CCN(CC)S(=O)(=O)c1ccc(C)c(N=C=S)c1 | 2.82 µM [rising, full curve, poor fit] | 6.31 µM [rising, partial curve, poor fit]

Some of the entries so far, as tab-separated lines:
SMILES	AC50 [1]	AC50 [2]
Cc1ccc(Cn2c(=O)n(CC3CCC(C(=O)N4CCOCC4)CC3)c(=O)c3sccc32)cc1 (configuration not stated)	0.00891 µM [falling, full curve, poor fit]	–
COC(=O)C(Cc1ccccc1)N1CCS(=O)(=O)CC1 (configuration not stated)	–	1 µM [falling, full curve, poor fit]

The list continues.

SMILES | AC50 [1] | AC50 [2]
Cc1ccc(CCNc2ncnc3onc(C)c23)cc1 | 22.4 µM [rising, single point] | –
CN(C)c1ccc(/C=C2/NC(=O)NC2=O)cc1 | 5.62 µM [falling, full curve] | 6.31 µM [falling, full curve, poor fit]
CSc1cccc(Nc2cc(C(=O)NCCCN(Cc3ccccc3)C(C)C)c3ccccc3n2)c1 | 12.6 µM [falling, partial curve] | 12.6 µM [falling, partial curve]
COc1ccc(-c2n[nH]c(=S)n2/N=C/C=C\c2ccccc2OC)cc1 | 5.01 µM [rising, single point] | –
CN(C)c1ccc(-c2nccc(NCc3cccs3)n2)cc1 | 15.8 µM [falling, partial curve] | 5.01 µM [falling, partial curve]
O=S(=O)(Nc1ccc(Cc2ccncc2)cc1)c1ccc(Cl)s1 | 12.6 µM [rising, partial curve] | 8.91 µM [rising, partial curve, poor fit]
COc1cccc(Cn2c(=O)c(-c3ccc(Cl)cc3)nc3cncnc32)c1 | 3.55 µM [falling, full curve] | 3.16 µM [falling, full curve]
CCc1c(C)nc2ccc(Br)cc2c1SCCC#N | 25.1 µM [rising, single point] | –
Nc1sccc1C(=O)c1ccccc1 | 15.8 µM [rising, partial curve] | –
COc1ccc(NC(=O)c2ccccc2NS(=O)(=O)c2ccc(C)cc2)c([N+](=O)[O-])c1 | 31.6 µM [rising, single point] | –
CC(Oc1ccc(Cl)cc1)C(=O)Nc1nccs1 (configuration not stated) | 12.6 µM [rising, single point] | –
CC(=O)Oc1cc2oc(=O)c3c(c2cc1Cl)CCC3 | 22.4 µM [rising, single point] | 17.8 µM [rising, single point]
COc1ccc(-c2nnc3ccc(SCC(=O)Nc4cc(C)on4)nn23)cc1 | – | 0.0708 µM [rising, full curve, poor fit]
CC(=O)NC1=C(N(C)C2CCS(=O)(=O)C2)C(=O)c2ccccc2C1=O (configuration not stated) | 31.6 µM [rising, single point] | –
O=C(/C=C\c1ccc2c(c1)OCO2)NC1(C(=O)Nc2ccc3c(c2)OCCO3)CCCCC1 | – | 0.0316 µM [rising, full curve, poor fit]
COc1ccc(C(=O)C[n+]2ccc3c(c2)nnn3-c2ccccc2)cc1 | 35.5 µM [falling, single point] | 35.5 µM [falling, single point]
COc1cc(NC(=O)c2cccnc2Sc2ccc(Cl)cc2)cc(OC)c1OC | 12.6 µM [rising, partial curve] | –
O=c1c2ccccc2nc(SCc2nc3ccccc3s2)n1CCCO | 12.6 µM [rising, partial curve, poor fit] | 12.6 µM [rising, partial curve, poor fit]
Cc1ccc(S(=O)(=O)/C(=C/Cl)NC(=O)c2ccccc2)cc1 | 31.6 µM [falling, single point] | 35.5 µM [falling, single point]
Cc1ccc(C2CC(=O)C(C=NCCN3CCN(C(=S)Nc4ccccc4)CC3)=C(O)C2)cc1 (configuration not stated) | 0.158 µM [rising, full curve, poor fit] | –
COC(=O)C1=C(C)NC(=O)/C1=C\c1ccco1 | 2.51 µM [falling, full curve, poor fit] | –
CC(C)CSC1=NSC2=NC(=O)/C(=C\c3cccs3)C(=N)N12 | – | 2.51 µM [rising, single point]
C=CCn1c(SCc2ccc(C#N)cc2)nnc1-c1cccc(OC)c1 | 15.8 µM [rising, partial curve] | 8.91 µM [rising, partial curve, poor fit]
COc1cc(C(=O)c2ccccc2)c(OC)cc1C(=O)Nc1ccc(O)cc1 | 7.94 µM [falling, full curve, poor fit] | 7.08 µM [falling, full curve]
CCOC(=O)c1c(NC(=O)Cn2cnc([N+](=O)[O-])n2)sc2c1CCCC2 | 12.6 µM [rising, partial curve, poor fit] | –
O=C(Cc1ccccc1)N/N=C/c1ccc2cccc(O)c2n1 | 28.2 µM [falling, partial curve] | 14.1 µM [falling, partial curve, poor fit]
CC1=N/C(=C/c2ccco2)C(=O)O1 | 0.891 µM [falling, partial curve] | 6.31 µM [rising, single point]

Whole records as entered above:
`O=S(=O)(Nc1ccc(Cc2ccncc2)cc1)c1ccc(Cl)s1` as listed: AC50 [1]: 12.6 µM [rising, partial curve]; AC50 [2]: 8.91 µM [rising, partial curve, poor fit]
`COc1ccc(NC(=O)c2ccccc2NS(=O)(=O)c2ccc(C)cc2)c([N+](=O)[O-])c1` as listed: AC50 [1]: 31.6 µM [rising, single point]
